Measured values: paper PMC12040169 (PLOS Biology, 2025)
The list shows a part of the results.

test system: T1, CTL2-GFP (C. trachomatis L2/434/Bu, GFP-expressing); parameters: species or system HeLa; Intracellular C. trachomatis growth in HeLa cells, bulk GFP fluorescence relative to DMSO; settings: bulk GFP, single well; 28.5 h, 10 µM; inhibitor
T1 construct: L2/434/Bu, GFP-expressing

Row | SMILES | % of control remaining
1 | CCCC(=O)c1ccc(S(=O)(=O)N2CCCN(Cc3ccc(OC)c(F)c3)CC2)cc1 [CBK062926] | 102.305%
2 | COc1cc(C=O)ccc1Oc1nnnn1-c1ccc(C(=O)O)cc1 [CBK267071] | 153.253%
3 | CCOC(=O)c1ccc(N2C(=O)CC(N3CCN(c4ccc(S(C)(=O)=O)cc4)CC3)C2=O)cc1 (centres unmarked) [CBK268721] | 98.2415%
4 | NC(=S)c1ccc2c(c1)OCO2 [CBK022803] | 126.946%
5 | CCc1nc2ccc(C(=O)Nc3ccc(OC)c(OC)c3)cn2c1N(C)C(=O)Nc1ccccc1OC [CBK145875] | 92.3105%
6 | COc1ccc(OCCN2CCC(C(=O)c3ccc(F)cc3)CC2)cc1 [CBK149136] | 92.9329%
7 | O=C(COc1ccc2ccccc2c1)N[C@@H](C(=O)O)c1ccc(O)cc1 [CBK286571] | 120.527%
8 | COc1ccc(-n2c(=O)[nH]cc(C(=O)Nc3cccc(Cl)c3C)c2=O)cc1 [CBK287549] | 120.738%
9 | O=c1c2ccccc2nc(COc2ccccc2)n1O [CBK288482] | 111.587%
10 | N=c1n(CCN2CCCCC2)c2ccccc2n1CC(O)c1cccs1 (centres unmarked) [CBK262908C] | 100%
11 | Cc1cc(C)c2nonc2c1S(=O)(=O)NCCN1CCCCC1CO (centres unmarked) [CBK306966] | 119.602%
12 | CCCc1cnc(N2CCOCC2)nc1 [CBK028742] | 147.688%
13 | CCOc1cc(S(=O)(=O)NCCCn2ccnc2)ccc1Cl [CBK269874] | 143.245%
14 | Cc1nc2c(c(=O)[nH]1)CN(Cc1ccc(-c3ccccc3)cc1)CC2 [CBK283952] | 102.352%
15 | Cc1nc2c(oc3nc(-c4ccoc4)c4c(c32)CC(C)(C)OC4)c(-c2ccccc2)c1C(=O)O [CBK265286] | 100%
16 | O=C(c1cnn(-c2ccc(Cl)cc2Cl)c1)N1CCOCC1c1ncon1 (centres unmarked) [CBK304231] | 109.528%
17 | CCc1c(CC)c(OC(=O)C(N)C(C)C)c2ccccc2c1OC (centres unmarked) [CBK016484C] | 93.4316%
18 | COc1ccccc1-c1ccc(NC(=O)CCn2cnc3ccccc3c2=O)cc1 [CBK285711] | 119.992%
19 | CCOC(=O)c1cccc(-c2ccc(F)cc2F)n1 [CBK149245] | 114.449%
20 | CCN(CC)C(=O)CN(CCc1ccc(OC)c(OC)c1)C(=O)NCc1c(Cl)cccc1Cl [CBK158743] | 155.497%
21 | CCc1[nH]nc2c1C1(CN3CCC1CC3)C(C#N)=C(N)O2 (centres unmarked) [CBK267454] | 105.199%
22 | Cc1cccc(C(=O)N/N=C/c2ccoc2)c1O [CBK018727] | 119.523%
23 | O=C(O)c1cccc(-c2cccc(N3CCN(c4ccccn4)CC3)n2)c1 [CBK036888] | 74.4229%
24 | O=C(O)C1CC(=O)N(CCc2ccccc2)/C(=N/CCc2ccccc2)S1 (centres unmarked) [CBK265558] | 130.972%
25 | CC(=O)Nc1ccc(S(=O)(=O)N2CCN(c3cc4[nH]c(=O)[nH]c4cc3[N+](=O)[O-])CC2)cc1 [CBK267013] | 186.718%

Row | SMILES | % of control remaining
26 | CC1CCc2nc(NC(=O)Cn3cccc(C(=O)NC4CCCCC4)c3=O)sc2C1 (centres unmarked) [CBK286064] | 96.1004%
27 | Cc1nnc2c(N3CCN(CCO)CC3)nc3ccccc3n12 [CBK270146] | 150.667%
28 | O=C(c1ccccc1)N1C[C@@H]2CCCCN(CC3CC3)[C@@H]2C1 [CBK285498] | 149.006%
29 | COc1ccc(-c2ccccc2NC(=O)c2cccc(CN3CCCC3=O)c2)cc1 [CBK285865] | 110.704%
30 | O=C(C1CCCCC1)N1CCC(n2c(=O)[nH]c3ccccc32)CC1 [CBK149703] | 115.168%
31 | COC(=O)c1ccc(/C=C/C2=CCN(C)CC2)cc1 [CBK283744] | 97.24%
32 | CNC(=O)c1cc2ncc(C(F)(F)F)cc2s1 [CBK089882] | 134.288%
33 | Cc1ccc(S(=O)(=O)N2CCN(c3nc(NC(C)c4ccccc4)c4ccccc4n3)CC2)cc1 (centres unmarked) [CBK266448] | 129.927%
34 | Cc1ccc(/N=N/N(CC(O)C(O)C(O)CO)c2ccc(C)c(C)c2)cc1C (centres unmarked) [CBK262705] | 110.495%
35 | c1c2c(cc3sc(N4CCCC4)nc13)OCCO2 [CBK287496] | 165.971%
36 | Cn1c(=O)c(C(=O)Nc2ccc(Cl)cc2)cc2cccnc21 [CBK287741] | 114.645%
37 | COC(Cc1nc2ccccc2s1)C(=O)O (centres unmarked) [CBK265806] | 197.415%
38 | O=C(Nc1nnc(-c2ccncc2)o1)c1ccc(Cl)cc1Cl [CBK287433] | 148.724%
39 | COc1cc(NC(=O)c2ccc3c(c2)C(=O)N(c2c(C)cc(C)cc2C)C3=O)c(C(=O)O)cc1OC [CBK264074] | 135.053%
40 | Cc1nn(-c2ccccc2)c(C)c1C1CC(=O)Nc2c1cnn2C(C)C (centres unmarked) [CBK287925] | 120.585%
41 | CCCn1ncc(CN2CCC(c3cc4cccnc4[nH]3)CC2)c1C [CBK284949] | 132.794%
42 | Cc1nn(CC(=O)N2CCN(C)CC2)c(=O)c2ccccc12 [CBK304221] | 63.1064%
43 | O=C(O)CC1Sc2ccccc2NC1=O (centres unmarked) [CBK261308] | 113.505%
44 | COC(=O)c1nn(C(=O)N(C)C)c(C)c1Br [CBK005077] | 126.203%
45 | CC(C)(C)OC(=O)COc1cc2oc(=O)cc(-c3ccccc3)c2cc1Cl [CBK263729] | 100%
46 | CN1CCN(c2ccc([N+](=O)[O-])c(NCc3ccccc3)c2)CC1 [CBK042199] | 107.121%
47 | CS(=O)(=O)Nc1nnc(SCC(=O)Nc2cccc([N+](=O)[O-])c2)s1 [CBK045536] | 117.548%
48 | O=C(CC1=C(O)C(=O)c2ccccc2C1=O)c1ccccc1 [CBK262002] | 100.049%
49 | CN(CCO)c1ccc(C(=O)N2CCC(N3CCOCC3)CC2)cn1 [CBK306899] | 134.729%
50 | COc1ccc(Br)cc1C(=O)Nc1cc(-c2nc3ccccc3[nH]2)ccc1Cl [CBK264112] | 100%

Part of the list above in a different format.

| Row | SMILES | % of control remaining |
| --- | --- | --- |
| 2 | COc1cc(C=O)ccc1Oc1nnnn1-c1ccc(C(=O)O)cc1 [CBK267071] | 153.253% |
| 3 | CCOC(=O)c1ccc(N2C(=O)CC(N3CCN(c4ccc(S(C)(=O)=O)cc4)CC3)C2=O)cc1 (centres unmarked) [CBK268721] | 98.2415% |
| 4 | NC(=S)c1ccc2c(c1)OCO2 [CBK022803] | 126.946% |
